Assay results taken from patent US20030157516A1, “G protein coupled receptor” (priority 2000, published 2003).
The source holds more than one record for some entries. The list is limited to them. The source may hold further records. Results that share an entry differ for a reason that is not stated; they may come from other doses, times, organisms or constructs than stated.

Test system: wild type CHO cells
Assay: [3H]adenine saturation binding on wild type CHO membranes
Conditions: single experiments, tested as the radiolabelled form, listed as [^3H] adenine

Nc1ncnc2nc[nH]c12
Kd (100 μM Gpp-NHp): 5 nM, 25 nM, 17 nM | Kd (No Gpp-NHp): 34 nM, 15 nM, 30 nM
